In PMC10313362:
Results are given in words; binding and its absence hold for the method and conditions named. Binding seen in cells or lysates may run through a third protein. Some entries that bind do so weakly or less than the wild type.

Chains of the proteins cited; added tags and fusions are not shown.
UniProt P31749: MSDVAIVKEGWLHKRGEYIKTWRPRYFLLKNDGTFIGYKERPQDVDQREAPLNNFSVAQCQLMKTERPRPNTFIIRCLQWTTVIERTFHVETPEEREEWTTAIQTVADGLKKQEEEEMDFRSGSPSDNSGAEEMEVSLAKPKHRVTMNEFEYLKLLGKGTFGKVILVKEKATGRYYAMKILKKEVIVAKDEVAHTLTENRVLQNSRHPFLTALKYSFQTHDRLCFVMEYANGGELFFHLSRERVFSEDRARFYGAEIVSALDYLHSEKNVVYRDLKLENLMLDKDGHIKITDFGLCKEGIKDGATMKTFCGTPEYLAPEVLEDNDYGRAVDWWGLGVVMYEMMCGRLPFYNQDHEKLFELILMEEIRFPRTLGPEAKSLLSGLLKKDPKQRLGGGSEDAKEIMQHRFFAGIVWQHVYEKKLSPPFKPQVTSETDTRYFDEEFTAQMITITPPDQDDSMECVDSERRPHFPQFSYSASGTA

Assays:
[1] = target: T1, S100A11 (in SK-Hep1 cells) (UniProt P31949); assay: co-IP; SK-Hep1 cell lysate (150 mM NaCl, 50 mM Tris pH 7.5, 0.5% NP-40); primary antibody 6-8 h at 4°C, protein A/G magnetic beads, washed with PBST, immunoblot
T1 sequence: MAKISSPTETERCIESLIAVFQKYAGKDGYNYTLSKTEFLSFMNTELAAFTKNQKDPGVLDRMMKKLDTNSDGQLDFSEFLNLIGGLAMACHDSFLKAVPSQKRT

S100A11 = target: T2, S100A11 (UniProt P31949); assay: co-IP; HEK-293 cell lysate (150 mM NaCl, 50 mM Tris pH 7.5, 0.5% NP-40); primary antibody 6-8 h at 4°C, protein A/G magnetic beads, washed with PBST, immunoblot
T2 sequence: T1 sequence

With “AKT1 (in SK-Hep1 cells) (from UniProt P31749 1-480)” the binding [1] was “binds”.
With “AKT1 full-length protein (aa 1-480) (from UniProt P31749 1-480)” the binding (S100A11) was “binds”.
